Library screening results

From ChEMBL document CHEMBL3988442, “University of Dundee, Small-Polar-MMV Screening Library” (2021).

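Viability assay of Plasmodium falciparum sporozoites; the read-out is not stated. The concentration is filed as 10 mM, unlikely as a test dose, so the dose is not known. The record gives no direction; compounds that gave an IC50 in retests scored well above the rest, so higher reads as lower viability. Strong results were mostly tested again. About 34,000 compounds were tested under these conditions; 0.84% (about 280) showed 50% or more at least once.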

The filed quantity is “Percent Effect” (%). The record does not define 0% and 100%; most values in the screen are far below 50% and negative numbers occur (in some assays of this library far below -100). This is an unselected part of the compounds tested. Two or more numbers in one place are separate tests of the same structure; such repeats can differ widely.

Compound | percent effect
CC(=O)Nc1cc(CCC2CCN(C(=O)c3ccccn3)CC2)ccn1 | 2.531% and -14.73% and -5.68%
CN1C(=O)CCC12CCCN(Cc1nccs1)C2.O=C(O)C(F)(F)F (centres unmarked) | -5.122%
Cc1cc2n(n1)CC(CNCc1ccc(N3CCOCC3)nc1)CN2 (centres unmarked) | 1.887%
CC(C)=CCN1CCN(Cc2cc(C)n[nH]2)CC1CCO (centres unmarked) | 1.579%
Cc1ncc(-c2ccncc2)c(C2CCCN(C(=O)c3ccno3)C2)n1 (centres unmarked) | 7.94%
Cc1nc(CC(=O)N2CCCN(c3ccc(F)cc3)CC2)cs1 | 8.2%
O=C(Cc1c[nH]c2ccccc12)N1CCN(C(=O)c2ccoc2)CC1 | -1.015%
Cc1cc2c(=O)n3c(nc2s1)CCN(C(=O)c1ccnn1C(C)C)CC3 | -12.33%
Cn1c(CN2CCOCC2)nnc1C1CCN(C(=O)C2CCCC2)CC1 | -13.76%
O=C(Cc1csc(-c2ccoc2)n1)NCCC(=O)N1CCCCC1 | 3.509%
O=C(O)C(F)(F)F.[H][C@@]12CN(Cc3cccs3)C[C@]1([H])C(=O)N(c1ccsc1)C2 | -17.48%
CC(C)OCCOCc1cccc(NC(=O)NCc2ccncc2)c1 | -15.27%
COc1ccc(NC(=O)NCC(C)N2CCc3ccccc32)cc1 (centres unmarked) | 5.329% and 7.357%
Fc1cccc(CN2CCOC3(COCCN(CC4CC4)C3)C2)c1.O=C(O)C(F)(F)F.O=C(O)C(F)(F)F (centres unmarked) | 2.35%
COCC(=O)N1CCn2c(CN3CCN(C)CC3)cnc2C1.O=C(O)C(F)(F)F.O=C(O)C(F)(F)F | 11.11%
CCCNC(=O)c1cn(C(C)(C)C)c2ncccc12 | -3.313%
CC(C)COCC(NC(=O)c1cccnc1)c1ccco1 (centres unmarked) | -4.64%
Fc1ccc(Br)c(NCc2nnsc2Cl)c1 | -13.17%
COc1ccnc(N2CCC(=O)N(CC3CC3)C(C(C)C)C2)n1 (centres unmarked) | -3.421%
Cc1nc(C(=O)N2CCC(Nc3cccnn3)CC2)cs1 | 0.9249%
CCOC1CCN(C(=O)NCCc2ccn(-c3ccccc3)n2)CC1 | 7.177%
Cc1nc(N(C)C)nc2c1COCC21CCN(CC2CC2)C1.O=C(O)C(F)(F)F (centres unmarked) | -4.059%
CC1COC2(CCN(C(=O)Cc3ccncc3)CC2)C1.O=C(O)C(F)(F)F (centres unmarked) | 10.46%
Cn1cccc(NC(=O)N2CCC(Cc3ccccc3)C2)c1=O (centres unmarked) | 22.4%
COCCCN(CCOC)Cc1nc2c(cnn2C)c(=O)[nH]1 | 10.47%
CC(NCc1ccc(-c2ccc(F)cc2)o1)c1nnc2n1CCC2 (centres unmarked) | -5.325%
CCc1nc(CN2CCN(c3ncnc4cc(F)ccc34)CC2)no1 | 2.399%
O=C1NCCN1C1CCCN(Cc2coc(-c3ccc(F)cc3)n2)C1 (centres unmarked) | -27.99%
[H][C@]12CC[C@](O)(c3cccc(OC)c3)[C@@]1([H])CN(C(=O)c1c[nH]nc1C)C2 | -1.668%
[H][C@]12CC[C@]([H])(CC(=O)N(C)C1)N2C(=O)c1ccc(-c2ccccc2)[nH]c1=O | 3.547%
Cc1ccc(=O)n(CC2(O)CCN(Cc3c(F)cccc3F)CC2)n1 | -5.692%
Cc1nc(C2CCCN(C(=O)c3cc4c(s3)CCCC4)C2)no1 (centres unmarked) | -2.465%
CN(C)c1ccc(CCCNC(=O)Nc2ccc(C#N)cc2)cc1 | -1.765%
O=C(O)C(F)(F)F.O=C(O)C(F)(F)F.O=C(O)C(F)(F)F.O=C(O)C(F)(F)F.c1ccc(CN2CCc3c(COCc4ccncc4)cncc3C2)nc1 | -27.8%
CN(C)c1cc(C(=O)N2CCN(c3cnccn3)CC2)ccn1 | 12.08%
Cc1nc(O)c2nnn(C[C@H]3CCCN3C(=O)c3cccc(F)c3)c2n1 | -7.938%
COc1cc(C(=O)N2CC3(CCNCC3)c3cc(Cl)ccc32)ccn1.O=C(O)C(F)(F)F.O=C(O)C(F)(F)F | -12.27%
c1ccc(-c2cnc(CN3CCn4c(nnc4C4CC4)C3)o2)cc1 | 1.979%
COc1cccc2c1OCCCN(c1nc(C)nc3c1CCNCC3)C2 | 9.141% and 13.04%
O=C(O)C(F)(F)F.[H][C@]12CCCN(Cc3ccc(C)o3)[C@@]1([H])CN(C(C)=O)C2 | 8.383%
COCC(=O)N(C)Cc1cccc(Cl)c1 | -23.34%
O=C(O)C(F)(F)F.[H][C@@]12CO[C@@H](CNC(=O)c3nccn3C)[C@]1([H])CCN(CC1CC1)C2 | -2.981%
Cc1cnn(CCNCc2ccc(OCC(N)=O)cc2)c1 | -21.46%
COCC1CN(Cc2ccoc2)Cc2nnn(C)c21.O=C(O)C(F)(F)F (centres unmarked) | -0.7299%
CCc1nc(CN2CCCC(N(C)Cc3cnn(C)c3)C2)no1 (centres unmarked) | -6.257%
CC(=O)N1Cc2ccccc2C[C@H]1C(=O)Nc1ccccn1 | 80.79% and 67.33%
O=C(O)C(F)(F)F.[H][C@@]12CCN(c3nnc(C)s3)C[C@@]1([H])O[C@@H](c1nc(C)no1)C2 | 4.203%
Cc1csc2nc3n(c(=O)c12)CCN(Cc1ccccn1)CC3.Cl | -8.77%
CCc1ccc(NC(=O)C2OC(c3cccs3)=NN2C(C)=O)cc1 (centres unmarked) | 4.24%
O=C(O)C(F)(F)F.[H][C@@]12COC[C@]1(CNS(C)(=O)=O)CN(CC1CCC1)C2 | 0.08104%
CC(C)CN1C(=O)C2(CCN(Cc3ccc(F)cc3)C2)c2ccccc21 (centres unmarked) | 12.44%
Cc1nn(C)cc1Cn1cc(Cl)c(N)n1 | 6.094%
COc1cc(CNCC2CNc3ccnn3C2)ccn1 (centres unmarked) | 19.74%
CCc1cnc(CCNC(C)CC(=O)Nc2cccc(C)c2C)s1 (centres unmarked) | -7.692%
O=C(c1ccc2cc[nH]c2c1)N1CCCN(Cc2cscn2)CC1 | 2.903%
Cc1ncncc1C(=O)N1CCOC(C(=O)NC2CCCC2)C1 (centres unmarked) | 5.941%
CCCn1nc2c(cc1=O)CN(CCCS(N)(=O)=O)CC2 | 6.4%
COc1ccc(-c2n[nH]cc2CN(C)Cc2nnc(C)o2)c(F)c1 | 8.215%
Cc1nn(C)c(Cl)c1C1CCCN1C(=O)c1ccc2c(c1)OCO2 (centres unmarked) | -1.44%
CN1[C@H](CO)C[C@H](CNCc2ccc(Cl)c(F)c2)[C@@H]1c1ccccc1F | 4.353%
CC(C)Cc1cc(C(=O)NCc2nnc[nH]2)[nH]n1 | -2.818%
CC(C)C(=O)NC1CCCN(C(=O)c2cc3ccccc3cc2O)C1 (centres unmarked) | 14.75%

The last 4 entries again:

{"compound": "Cc1nn(C)c(Cl)c1C1CCCN1C(=O)c1ccc2c(c1)OCO2", "stereo": "centres unmarked", "percent effect": -1.44}
{"compound": "CN1[C@H](CO)C[C@H](CNCc2ccc(Cl)c(F)c2)[C@@H]1c1ccccc1F", "percent effect": 4.353}
{"compound": "CC(C)Cc1cc(C(=O)NCc2nnc[nH]2)[nH]n1", "percent effect": -2.818}
{"compound": "CC(C)C(=O)NC1CCCN(C(=O)c2cc3ccccc3cc2O)C1", "stereo": "centres unmarked", "percent effect": 14.75}